For the assay, the target named is ADP-dependent glucokinase (ADPGK) fused with a 6 × His-tag (UniProt Q9BRR6). As to the kind of experiment: co-IP; Pierce Co-IP kit; His-tag antibody (IgG antibody as control) coupled to the resin; precleared lysate (1 μg/μl) of cells expressing ADPGK-6 × His incubated at 4 °C overnight; eluate analysed by Western blotting.

Protein sequences, listed by entry. Tags and fused reporters are not part of them. Residues count along the entry.
UniProt Q9BRR6, residues 23-497: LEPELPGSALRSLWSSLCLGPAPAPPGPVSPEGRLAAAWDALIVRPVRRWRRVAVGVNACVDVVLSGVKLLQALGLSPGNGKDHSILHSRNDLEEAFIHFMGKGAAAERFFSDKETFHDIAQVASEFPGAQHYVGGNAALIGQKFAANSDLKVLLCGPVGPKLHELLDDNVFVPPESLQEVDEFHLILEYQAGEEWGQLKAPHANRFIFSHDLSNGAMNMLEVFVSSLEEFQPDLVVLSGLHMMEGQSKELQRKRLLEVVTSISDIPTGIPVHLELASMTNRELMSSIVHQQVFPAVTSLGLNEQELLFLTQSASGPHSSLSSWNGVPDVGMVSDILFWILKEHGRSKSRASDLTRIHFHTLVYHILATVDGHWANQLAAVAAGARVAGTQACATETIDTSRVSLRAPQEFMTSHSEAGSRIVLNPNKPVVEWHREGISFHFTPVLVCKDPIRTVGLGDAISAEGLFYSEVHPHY

No constants are given. Whether binding was seen depends on the method and setting. Binding seen in cells or lysates may run through a third protein. Some results given as binding are weak or reduced against the parent protein; the word gives no strength.

B1: Aldolase C (ALDOC) (enzyme, UniProt P09972 1-364)
chain: MPHSYPALSAEQKKELSDIALRIVAPGKGILAADESVGSMAKRLSQIGVENTEENRRLYRQVLFSADDRVKKCIGGVIFFHETLYQKDDNGVPFVRTIQDKGIVVGIKVDKGVVPLAGTDGETTTQGLDGLSERCAQYKKDGADFAKWRCVLKISERTPSALAILENANVLARYASICQQNGIVPIVEPEILPDGDHDLKRCQYVTEKVLAAVYKALSDHHVYLEGTLLKPNMVTPGHACPIKYTPEEIAMATVTALRRTVPPAVPGVTFLSGGQSEEEASFNLNAINRCPLPRPWALTFSYGRALQASALNAWRGQRDNAGAATEEFIKRAEVNGLAAQGKYEGSGEDGGAAAQSLYIANHAY
As to B1, the binding result is “binds”.

(Values after paper PMC10714548.)
